Measured values published in US20020197647A1.
These are yes or no findings as the source states them, for the method shown. Binding seen in cells or lysates may run through a third protein. Some binding calls cover weakened binding; strength is not graded here.

Amino acid sequences for entries named in this document (tags omitted). A change or cut given only in a name is not applied to a line headed by its entry. Residues count along the entry.
UniProt P05412: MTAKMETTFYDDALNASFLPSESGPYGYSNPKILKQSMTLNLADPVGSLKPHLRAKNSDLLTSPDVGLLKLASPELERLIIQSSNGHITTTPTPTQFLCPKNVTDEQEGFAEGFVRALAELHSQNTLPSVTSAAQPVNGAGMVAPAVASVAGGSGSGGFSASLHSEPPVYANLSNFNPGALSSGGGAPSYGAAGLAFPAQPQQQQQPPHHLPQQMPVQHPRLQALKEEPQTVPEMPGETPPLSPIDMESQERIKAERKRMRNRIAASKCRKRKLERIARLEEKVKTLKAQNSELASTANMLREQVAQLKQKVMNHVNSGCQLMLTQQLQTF
UniProt P40763, residues 2-770: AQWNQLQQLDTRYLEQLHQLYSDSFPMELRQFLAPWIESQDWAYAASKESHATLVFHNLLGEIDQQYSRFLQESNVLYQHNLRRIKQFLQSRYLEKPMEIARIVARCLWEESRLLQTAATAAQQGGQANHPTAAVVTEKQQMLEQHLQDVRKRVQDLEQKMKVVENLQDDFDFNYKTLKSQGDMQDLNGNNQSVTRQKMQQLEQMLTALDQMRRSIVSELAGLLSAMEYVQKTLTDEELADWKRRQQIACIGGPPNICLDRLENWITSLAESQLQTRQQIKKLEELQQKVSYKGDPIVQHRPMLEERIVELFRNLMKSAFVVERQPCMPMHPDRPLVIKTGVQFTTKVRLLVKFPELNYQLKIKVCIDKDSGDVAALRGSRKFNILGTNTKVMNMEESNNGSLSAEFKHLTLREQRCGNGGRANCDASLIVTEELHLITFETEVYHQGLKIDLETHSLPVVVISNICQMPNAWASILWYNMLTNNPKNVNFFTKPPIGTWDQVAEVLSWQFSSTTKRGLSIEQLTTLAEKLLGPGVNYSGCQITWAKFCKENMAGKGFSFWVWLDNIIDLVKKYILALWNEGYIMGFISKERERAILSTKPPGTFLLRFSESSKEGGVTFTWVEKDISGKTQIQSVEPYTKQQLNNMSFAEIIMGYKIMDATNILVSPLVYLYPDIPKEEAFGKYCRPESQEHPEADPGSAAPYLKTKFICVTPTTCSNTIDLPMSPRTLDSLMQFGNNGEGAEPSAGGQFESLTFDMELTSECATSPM
UniProt P17325: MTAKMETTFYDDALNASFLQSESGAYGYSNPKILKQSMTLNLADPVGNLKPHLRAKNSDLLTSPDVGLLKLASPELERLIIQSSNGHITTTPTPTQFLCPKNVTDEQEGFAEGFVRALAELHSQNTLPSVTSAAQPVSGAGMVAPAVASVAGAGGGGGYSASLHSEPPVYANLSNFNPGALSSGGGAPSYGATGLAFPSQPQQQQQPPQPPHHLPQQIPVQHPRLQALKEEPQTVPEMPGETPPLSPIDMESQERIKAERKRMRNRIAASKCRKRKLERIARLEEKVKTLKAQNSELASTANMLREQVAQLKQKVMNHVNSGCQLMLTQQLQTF

Key:
[1] = biological target: endogenous c-Jun of human HepG2 cells (human) (UniProt P05412); experiment: GST pull-down from HepG2 cell extracts, blot with c-Jun antibody
[2] = biological target: endogenous c-Jun of human HepG2 cells (human) (UniProt P05412); experiment: GST pull-down from HepG2 whole cell extracts, immunoblot with c-Jun antibody
[3] = biological target: GST-Stat3 (107-377) (Homo sapiens (Human)) (UniProt P40763); experiment: GST pull-down of in vitro translated c-Jun fragment
[4] = biological target: GST-Stat3 (107-377) (Homo sapiens (Human)) (UniProt P40763); experiment: GST pull-down of 35S-labeled in vitro translated c-Jun fragment
[5] = biological target: endogenous c-Jun of human HepG2 cells (human) (UniProt P05412); experiment: co-immunoprecipitation from HepG2 nuclear extracts, Western blot
[6] = biological target: endogenous c-Jun of human HepG2 cells (human) (UniProt P05412); experiment: co-immunoprecipitation from nuclear extracts of IL-6-treated and untreated HepG2 cells, Western blot

Substance	binding [1]	binding [2]	also measured
GST-Stat3 (107-358) (from UniProt P40763 107-358)	binds	binds	–
GST-Stat3 (107-377) (from UniProt P40763 107-377)	binds	binds	–
GST-Stat3 (130-358) (from UniProt P40763 130-358)	binds	binds	–
c-Jun residues 105-334 (from UniProt P17325 105-332)	–	–	binding [3]: binds; binding [4]: binds
endogenous Stat3 of human HepG2 cells (from UniProt P40763 2-770)	–	–	binding [5]: binds; binding [6]: binds
